Experimental findings from article PMC4496050 are described below.

Amino acid sequences for entries named in this document (tags omitted).
UniProt Q00534: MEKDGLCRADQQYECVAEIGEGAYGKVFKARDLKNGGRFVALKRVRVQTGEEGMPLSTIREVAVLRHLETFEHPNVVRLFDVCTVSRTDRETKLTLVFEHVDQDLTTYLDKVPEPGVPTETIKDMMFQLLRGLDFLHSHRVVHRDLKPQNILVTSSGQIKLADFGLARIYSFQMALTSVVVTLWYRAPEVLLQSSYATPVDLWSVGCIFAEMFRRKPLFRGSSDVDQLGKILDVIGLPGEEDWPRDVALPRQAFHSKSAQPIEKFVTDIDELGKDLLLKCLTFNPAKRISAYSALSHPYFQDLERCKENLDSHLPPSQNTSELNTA

In this assay the target is CDK6 (human (endogenous in LCL)) (UniProt Q00534). The assay is described as follows: co-IP; IP with mouse anti-CDK2 or anti-CDK6 antibodies from 250 ug LCL extract (D4 EBNA3A-REV and EBNA3A-KO); IP buffer 50mM Tris-HCl pH 7.5, 150mM NaCl, 1mM DTT, 0.5% Nonidet P-40; 4°C overnight; protein G-Sepharose; Western blot for p57KIP2, CDK2 or CDK6; mouse IgG as control.

No constants are given. Whether binding was seen depends on the method and setting. In cells and extracts the contact can be indirect. Some binding calls cover weakened binding; strength is not graded here.

B1: p57^KIP2 (protein, UniProt P49918 1-316)
chain: MSDASLRSTSTMERLVARGTFPVLVRTSACRSLFGPVDHEELSRELQARLAELNAEDQNRWDYDFQQDMPLRGPGRLQWTEVDSDSVPAFYRETVQVGRCRLLLAPRPVAVAVAVSPPLEPAAESLDGLEEAPEQLPSVPVPAPASTPPPVPVLAPAPAPAPAPVAAPVAAPVAVAVLAPAPAPAPAPAPAPAPVAAPAPAPAPAPAPAPAPAPAPDAAPQESAEQGANQGQRGQEPLADQLHSGISGRPAAGTAAASANGAAIKKLSGPLISDFFAKRKRSAPEKSSGDVPAPCPSPSAAPGVGSVEQTPRKRLR
B1: the binding entry is given as “binds”.
